PMC13571239
No constants are given. Whether binding was seen depends on the method and setting. For some of these results: Binding seen in cells or lysates may run through a third protein. Some binding calls cover weakened binding; strength is not graded here. For some of these results: Sequences can lack the tags named with a protein.

Protein sequences, listed by entry. Tags and fused reporters are not part of them. Lines headed by an entry give the natural chain unless they say otherwise; changes in a name come on top. Residues count along the entry.
UniProt P25705, residues 44-553: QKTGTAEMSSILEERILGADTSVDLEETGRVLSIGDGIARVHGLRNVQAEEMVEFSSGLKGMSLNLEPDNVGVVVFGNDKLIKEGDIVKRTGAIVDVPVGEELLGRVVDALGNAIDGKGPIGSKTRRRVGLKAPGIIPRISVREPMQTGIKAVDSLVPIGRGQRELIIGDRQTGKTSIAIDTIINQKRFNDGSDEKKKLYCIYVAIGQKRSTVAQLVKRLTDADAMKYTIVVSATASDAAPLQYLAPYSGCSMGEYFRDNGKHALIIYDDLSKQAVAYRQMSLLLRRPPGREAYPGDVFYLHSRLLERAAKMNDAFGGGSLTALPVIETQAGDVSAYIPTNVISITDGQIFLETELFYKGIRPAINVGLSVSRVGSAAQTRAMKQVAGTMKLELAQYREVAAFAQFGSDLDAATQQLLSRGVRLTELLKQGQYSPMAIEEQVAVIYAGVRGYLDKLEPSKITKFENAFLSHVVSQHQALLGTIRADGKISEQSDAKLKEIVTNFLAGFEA

Experiments:
[1] = molecular target: T1, DDIT4L (in GBM primary cells, Fig. S7B) (UniProt Q96D03); assay: co-IP; in GBM primary cells (Fig. S7B)
T1 sequence: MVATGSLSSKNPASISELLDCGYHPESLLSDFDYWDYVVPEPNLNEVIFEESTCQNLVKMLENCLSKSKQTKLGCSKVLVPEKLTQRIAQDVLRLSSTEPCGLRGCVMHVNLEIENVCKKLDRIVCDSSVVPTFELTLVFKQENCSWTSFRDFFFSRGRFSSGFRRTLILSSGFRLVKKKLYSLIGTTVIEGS

[2] = molecular target: T2, DDIT4L (GST pull-down, purified protein interaction experiment and peptide experiment, Fig. S7C, S7D, S7G, S7H) (UniProt Q96D03); assay: pull-down; GST pull-down (Fig. S7C, S7G); which partner carried GST is not told
T2 sequence: T1 sequence

[3] = molecular target: T2, DDIT4L (GST pull-down, purified protein interaction experiment and peptide experiment, Fig. S7C, S7D, S7G, S7H); assay: purified protein interaction experiment; purified proteins (Fig. S7D); both purified

Row | binding [1] | binding [2] | binding [3] | Substance
1 | binds |  |  | ATP5B (in GBM primary cells, Fig. S7B) (from UniProt P06576 48-529)
2 | binds |  |  | ATP5A (in GBM primary cells, Fig. S7B) (from UniProt P25705 44-553)
3 |  | binds | binds | ATP5A (GST pull-down, purified protein interaction experiment and peptide experiment, Fig. S7C, S7D, S7G, S7H) (from UniProt P25705 44-553)
